Reference: the supplement of paper PMC6335503
± gives the standard deviation of the averaged measurements.

System: Tasmanian devil fibroblasts
Assay: cell viability, percent of DMSO control (CellTiter-Glo); higher = more viable cells
Conditions: 72 h
Method: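 Eight-point dose titration of 41 screen hits in triplicate wells on four Tasmanian devil DFTD tumour cell lines (T1-T4) and devil fibroblasts, 384-well plates. Viability was read by CellTiter-Glo (ATP) after 72 h at 37 °C. Percent of control per plate: DMSO wells = 100%, positive-control wells = 0%.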

Structure (SMILES)	cell viability (0.00617 µM)	cell viability (0.0185 µM)	cell viability (0.0556 µM)	cell viability (0.166667 µM)	cell viability (0.5 µM)	cell viability (1.5 µM)	cell viability (4.5 µM)	cell viability (13.5 µM)	further results
Cc1sc2c(c1C)C(c1ccc(Cl)cc1)=N[C@@H](CC(=O)Nc1ccc(O)cc1)c1nnc(C)n1-2 [OTX015]									cell viability (0.0123 µM): 117 ± 16%; cell viability (0.037 µM): 128 ± 52%; cell viability (0.111111111 µM): 94.2 ± 17%; cell viability (0.333333 µM): 75.9 ± 20%; cell viability (1 µM): 78.4 ± 12%; cell viability (3 µM): 81.3 ± 4.3%; cell viability (9 µM): 72.6 ± 2.5%; cell viability (27 µM): 109 ± 38%
O=C(/C=C/c1cccc(S(=O)(=O)Nc2ccccc2)c1)NO [RLM 2-89]									cell viability (0.000617 µM): 129 ± 51%; cell viability (0.00185 µM): 101 ± 46%; cell viability (0.00556 µM): 113 ± 58%; cell viability (0.0167 µM): 129 ± 47%; cell viability (0.05 µM): 132 ± 46%; cell viability (0.15 µM): 122 ± 51%; cell viability (0.45 µM): 69.9 ± 12%; cell viability (1.35 µM): 44.7 ± 6.4%
COc1cc2c(cc1-c1c(C)noc1C)ncc1[nH]c(=O)n([C@H](C)c3ccccn3)c12 [I-BET151]									cell viability (0.0309 µM): 102 ± 5.2%; cell viability (0.0926 µM): 118 ± 27%; cell viability (0.277778 µM): 114 ± 43%; cell viability (0.833333 µM): 62.4 ± 8.8%; cell viability (2.5 µM): 69.6 ± 5.3%; cell viability (7.5 µM): 78.6 ± 14%; cell viability (22.5 µM): 98.1 ± 20%; cell viability (67.5 µM): 93.6 ± 20%
COc1cc2ncnc(Nc3ccc(Cl)cc3F)c2cc1OC	83.1 ± 3.1%	78.3 ± 11%	128 ± 37%	141 ± 28%	101 ± 36%	94.2 ± 13%	77.2 ± 15%	134 ± 8.8%	
COc1cccc2c1C(=O)c1c(O)c3c(c(O)c1C2=O)C[C@@](O)(C(=O)CO)C[C@@H]3O[C@H]1C[C@H](N)[C@H](O)[C@H](C)O1 [Doxorubicin]	118 ± 33%	104 ± 2.6%	128 ± 38%	125 ± 36%	131 ± 46%	81.6 ± 12%	60.6 ± 15%	21.6 ± 8.9%	
CS(=O)(=O)CCNCc1ccc(-c2ccc3ncnc(Nc4ccc(OCc5cccc(F)c5)c(Cl)c4)c3c2)o1.Cc1ccc(S(=O)(=O)O)cc1.Cc1ccc(S(=O)(=O)O)cc1.O [Lapatinib ditosylate monohydrate]	107 ± 30%	101 ± 58%	124 ± 18%	85.7 ± 17%	89.5 ± 11%	89 ± 12%	157 ± 50%	141 ± 9.3%	
C=CC(=O)Nc1cc(Nc2ncc(Cl)c(-c3c[nH]c4ccccc34)n2)c(OC)cc1N(C)CCN(C)C [Mutant EGFR inhibitor]	103 ± 15%	83.8 ± 14%	116 ± 40%	106 ± 24%	92.9 ± 6.6%	114 ± 8.7%	70.7 ± 13%	48.4 ± 23%	
CC1(C)CC(=O)C2=C(C1)NC(=S)NC2c1cccc(O)c1 (configuration not stated) [Dimethylenastron]	110 ± 34%	107 ± 36%	117 ± 20%	105 ± 9%	102 ± 2%	137 ± 37%	126 ± 29%	121 ± 10%	
C#Cc1cccc(Nc2ncnc3cc(OCCOC)c(OCCOC)cc23)c1 [Erlotinib]									cell viability (0.0123 µM): 98.3 ± 9.9%; cell viability (0.037 µM): 108 ± 17%; cell viability (0.111111111 µM): 105 ± 32%; cell viability (0.333333 µM): 98.3 ± 7.3%; cell viability (1 µM): 92.8 ± 6.6%; cell viability (3 µM): 125 ± 41%; cell viability (9 µM): 101 ± 8.9%; cell viability (27 µM): 159 ± 53%
O=c1c(=NNc2nnn[nH]2)c(=O)c2ccccc12	112 ± 56%	113 ± 44%	105 ± 21%	106 ± 18%	125 ± 16%	117 ± 45%	29.3 ± 27%	-3.64 ± 18%	
CCOc1cc2ncc(C#N)c(Nc3ccc(F)c(Cl)c3)c2cc1NC(=O)/C=C/CN(C)C [Pelitinib (EKB-569)]	78.3 ± 7.2%	143 ± 82%	117 ± 21%	96.8 ± 18%	88.7 ± 4.4%	119 ± 60%	52.23 ± 0.52%	-3.7 ± 1.8%	
CCN1CCN(Cc2ccc(-c3cc4c(N[C@H](C)c5ccccc5)ncnc4[nH]3)cc2)CC1 [AEE788]	77.5 ± 4.3%	77.4 ± 9.7%	134 ± 62%	122 ± 47%	110 ± 57%	81.7 ± 17%	91.4 ± 40%	-3.31 ± 6.2%	
C=CC(=O)N1CCC[C@@H](n2nc(-c3ccc(Oc4ccccc4)cc3)c3c(N)ncnc32)C1	105 ± 58%	103 ± 34%	127 ± 46%	85.6 ± 10%	76 ± 5.7%	81.4 ± 11%	53.1 ± 16%	45.7 ± 3%	
CNC(=O)CN1CCC(Oc2cc3c(Nc4cccc(Cl)c4F)ncnc3cc2OC)CC1 [AZD8931 (Sapitinib)]	123 ± 43%	110 ± 45%	108 ± 46%	98.3 ± 18%	134 ± 28%	124 ± 65%	92.2 ± 20%	84 ± 20%	
COc1cc2ncnc(Nc3cccc(Cl)c3)c2cc1OC [AG-1478]	107 ± 21%	103 ± 2.7%	110 ± 16%	102 ± 15%	106 ± 15%	110 ± 23%	115 ± 30%	137 ± 31%	
Nc1ccc(F)cc1NC(=O)c1ccc(CNC(=O)/C=C/c2cccnc2)cc1 [Chidamide]									cell viability (0.0309 µM): 122 ± 51%; cell viability (0.0926 µM): 103 ± 14%; cell viability (0.277778 µM): 124 ± 32%; cell viability (0.833333 µM): 114 ± 23%; cell viability (2.5 µM): 104 ± 13%; cell viability (7.5 µM): 74.1 ± 6.2%; cell viability (22.5 µM): 71.1 ± 26%; cell viability (67.5 µM): 68.2 ± 28%
C=CC(=O)Nc1cc2c(Nc3ccc(F)c(Cl)c3)ncnc2cc1OCCCN1CCOCC1 [Canertinib (CI-1033)]	93.8 ± 25%	99.4 ± 8.1%	149 ± 68%	118 ± 47%	144 ± 85%	77.3 ± 9.5%	96.5 ± 37%	5.54 ± 6.2%	
CS(=O)(=O)CCNCc1ccc(-c2ccc3ncnc(Nc4ccc(OCc5cccc(F)c5)c(Cl)c4)c3c2)o1.Cc1ccc(S(=O)(=O)O)cc1	80.4 ± 17%	112 ± 42%	93.2 ± 24%	115 ± 40%	106 ± 24%	88.2 ± 8.4%	126 ± 43%	132 ± 63%	
C#Cc1cccc(Nc2ncnc3cc(OCCOC)c(OCCOC)cc23)c1.Cl [Erlotinib hydrochloride]	139 ± 40%	125 ± 30%	120 ± 66%	115 ± 7.5%	103 ± 25%	103 ± 24%	116 ± 20%	112 ± 20%	

2 records drawn at random from those above, as already listed:
Structure (SMILES)	cell viability (0.00617 µM)	cell viability (0.0185 µM)	cell viability (0.0556 µM)	cell viability (0.166667 µM)	cell viability (0.5 µM)	cell viability (1.5 µM)	cell viability (4.5 µM)	cell viability (13.5 µM)	further results
CNC(=O)CN1CCC(Oc2cc3c(Nc4cccc(Cl)c4F)ncnc3cc2OC)CC1 [AZD8931 (Sapitinib)]	123 ± 43%	110 ± 45%	108 ± 46%	98.3 ± 18%	134 ± 28%	124 ± 65%	92.2 ± 20%	84 ± 20%	
O=C(/C=C/c1cccc(S(=O)(=O)Nc2ccccc2)c1)NO [RLM 2-89]									cell viability (0.000617 µM): 129 ± 51%; cell viability (0.00185 µM): 101 ± 46%; cell viability (0.00556 µM): 113 ± 58%; cell viability (0.0167 µM): 129 ± 47%; cell viability (0.05 µM): 132 ± 46%; cell viability (0.15 µM): 122 ± 51%; cell viability (0.45 µM): 69.9 ± 12%; cell viability (1.35 µM): 44.7 ± 6.4%
